Source: publication PMC7000694

Amino acid sequences for entries named in this document (tags omitted). A change or cut given only in a name is not applied to a line headed by its entry.
UniProt P60953: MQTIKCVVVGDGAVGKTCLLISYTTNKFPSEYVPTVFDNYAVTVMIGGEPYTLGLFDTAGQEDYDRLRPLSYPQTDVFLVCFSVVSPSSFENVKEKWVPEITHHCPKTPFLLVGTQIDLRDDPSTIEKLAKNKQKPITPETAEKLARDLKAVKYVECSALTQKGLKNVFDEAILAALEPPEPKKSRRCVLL
UniProt O75914: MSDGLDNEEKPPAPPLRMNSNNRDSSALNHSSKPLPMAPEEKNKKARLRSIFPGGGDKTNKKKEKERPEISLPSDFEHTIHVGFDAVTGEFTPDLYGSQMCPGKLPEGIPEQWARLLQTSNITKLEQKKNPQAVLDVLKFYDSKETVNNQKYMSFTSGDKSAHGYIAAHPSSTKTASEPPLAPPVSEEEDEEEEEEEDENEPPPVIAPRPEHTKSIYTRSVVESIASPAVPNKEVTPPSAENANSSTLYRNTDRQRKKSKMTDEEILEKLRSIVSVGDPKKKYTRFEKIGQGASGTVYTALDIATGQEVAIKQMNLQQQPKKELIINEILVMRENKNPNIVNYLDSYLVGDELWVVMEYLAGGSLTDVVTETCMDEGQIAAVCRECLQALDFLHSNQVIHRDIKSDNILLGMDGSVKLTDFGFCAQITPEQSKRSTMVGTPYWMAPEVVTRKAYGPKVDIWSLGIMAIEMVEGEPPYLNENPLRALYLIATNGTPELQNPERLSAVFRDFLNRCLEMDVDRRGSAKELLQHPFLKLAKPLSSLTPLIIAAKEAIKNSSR

Molecular target: mEGFP-Cdc42 (UniProt P60953)
Assay: FRET or BRET; 2pFLIM of two-component FRET sensors (mEGFP-GTPase donor; effector binding domain between two red fluorescent proteins as acceptor) in CA1 pyramidal neurons of mouse organotypic hippocampal slices; binding fraction in single spines before and after glutamate uncaging (30 pulses at 0.5 Hz); slices from WT and PKCα KO littermates, also KO with PKCα or PKCα-no PDZ; room temperature

binding: binds
Substance: mCherry-Pak3(60-113)/S74A/F84A-mCherry-C1 (from UniProt O75914) (domain or fragment)

These are yes or no findings as the source states them, for the method shown. Binding seen in cells or lysates may run through a third protein. A result given as binding can be weak or reduced; the word gives no strength.
